No constants are given. Whether binding was seen depends on the method and setting. For part of these data: Binding seen in cells or lysates may run through a third protein. Some entries that bind do so weakly or less than the wild type. Blank lines part the entries; values can stand above or below the molecule they belong to.
What was measured:
[1] = target: PAK2 spotted on the protoarray (UniProt Q13177); assay: peptide or protein array; protoarrays probed with purified full-length LRRK2 alone, with GDP or with GppCp; Z-score of 3 (3 standard deviations from background) as cutoff for candidate interactions; both purified
[2] = target: T1, cyclin G‐associated kinase (GAK) spotted on the protoarray (UniProt O14976); assay: as above
T1 sequence: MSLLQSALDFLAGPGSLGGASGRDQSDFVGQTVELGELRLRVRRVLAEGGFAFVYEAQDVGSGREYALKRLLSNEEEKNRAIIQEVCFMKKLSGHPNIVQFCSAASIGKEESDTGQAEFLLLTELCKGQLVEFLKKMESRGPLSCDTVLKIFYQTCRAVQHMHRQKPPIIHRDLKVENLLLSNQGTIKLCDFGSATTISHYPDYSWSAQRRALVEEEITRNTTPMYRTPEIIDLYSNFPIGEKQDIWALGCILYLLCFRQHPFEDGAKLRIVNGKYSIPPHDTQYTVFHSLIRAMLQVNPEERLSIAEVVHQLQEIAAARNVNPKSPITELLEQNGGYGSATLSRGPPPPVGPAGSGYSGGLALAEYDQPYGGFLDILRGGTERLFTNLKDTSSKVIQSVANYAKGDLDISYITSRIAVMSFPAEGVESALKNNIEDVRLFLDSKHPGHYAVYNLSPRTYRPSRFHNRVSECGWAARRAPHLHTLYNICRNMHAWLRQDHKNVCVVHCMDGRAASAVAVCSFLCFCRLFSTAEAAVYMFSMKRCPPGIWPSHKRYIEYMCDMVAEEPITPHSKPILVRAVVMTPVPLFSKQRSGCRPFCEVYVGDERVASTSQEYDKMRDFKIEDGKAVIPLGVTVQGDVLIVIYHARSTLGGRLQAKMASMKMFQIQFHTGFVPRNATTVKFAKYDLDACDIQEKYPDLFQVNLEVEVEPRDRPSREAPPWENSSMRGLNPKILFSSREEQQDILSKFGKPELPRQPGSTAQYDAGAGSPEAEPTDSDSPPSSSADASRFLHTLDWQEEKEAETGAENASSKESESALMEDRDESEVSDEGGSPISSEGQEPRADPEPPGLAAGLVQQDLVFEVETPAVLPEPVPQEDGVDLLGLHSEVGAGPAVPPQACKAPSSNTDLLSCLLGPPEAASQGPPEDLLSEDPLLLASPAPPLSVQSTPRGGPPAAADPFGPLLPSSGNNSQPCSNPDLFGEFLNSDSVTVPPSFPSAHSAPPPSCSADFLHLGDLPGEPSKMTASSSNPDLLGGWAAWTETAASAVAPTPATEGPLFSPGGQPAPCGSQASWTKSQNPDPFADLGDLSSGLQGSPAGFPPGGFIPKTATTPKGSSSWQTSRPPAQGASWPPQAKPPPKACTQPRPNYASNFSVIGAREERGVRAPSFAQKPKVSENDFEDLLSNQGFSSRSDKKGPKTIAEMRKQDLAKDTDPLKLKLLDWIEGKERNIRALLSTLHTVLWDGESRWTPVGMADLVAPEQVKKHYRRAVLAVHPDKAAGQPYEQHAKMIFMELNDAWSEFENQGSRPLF

Amino acid sequences for entries named in this document (tags omitted). A change or cut given only in a name is not applied to a line headed by its entry. Chains listed by the source or under a name are the forms on record and can include a tag or linker. Residues count along the entry.
UniProt Q13177: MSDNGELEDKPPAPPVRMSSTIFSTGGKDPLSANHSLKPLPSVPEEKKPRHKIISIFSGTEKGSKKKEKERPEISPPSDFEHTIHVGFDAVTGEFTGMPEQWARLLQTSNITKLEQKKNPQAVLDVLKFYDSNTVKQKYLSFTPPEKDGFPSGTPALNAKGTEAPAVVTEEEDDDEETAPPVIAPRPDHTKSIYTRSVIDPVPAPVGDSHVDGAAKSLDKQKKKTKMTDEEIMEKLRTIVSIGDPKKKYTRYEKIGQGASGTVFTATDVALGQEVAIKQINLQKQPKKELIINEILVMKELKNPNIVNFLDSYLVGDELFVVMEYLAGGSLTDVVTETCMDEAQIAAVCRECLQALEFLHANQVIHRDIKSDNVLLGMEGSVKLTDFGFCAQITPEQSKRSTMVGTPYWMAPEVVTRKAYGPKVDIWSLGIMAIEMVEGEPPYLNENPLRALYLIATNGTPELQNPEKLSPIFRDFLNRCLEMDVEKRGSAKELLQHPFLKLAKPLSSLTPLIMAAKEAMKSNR
UniProt O75914: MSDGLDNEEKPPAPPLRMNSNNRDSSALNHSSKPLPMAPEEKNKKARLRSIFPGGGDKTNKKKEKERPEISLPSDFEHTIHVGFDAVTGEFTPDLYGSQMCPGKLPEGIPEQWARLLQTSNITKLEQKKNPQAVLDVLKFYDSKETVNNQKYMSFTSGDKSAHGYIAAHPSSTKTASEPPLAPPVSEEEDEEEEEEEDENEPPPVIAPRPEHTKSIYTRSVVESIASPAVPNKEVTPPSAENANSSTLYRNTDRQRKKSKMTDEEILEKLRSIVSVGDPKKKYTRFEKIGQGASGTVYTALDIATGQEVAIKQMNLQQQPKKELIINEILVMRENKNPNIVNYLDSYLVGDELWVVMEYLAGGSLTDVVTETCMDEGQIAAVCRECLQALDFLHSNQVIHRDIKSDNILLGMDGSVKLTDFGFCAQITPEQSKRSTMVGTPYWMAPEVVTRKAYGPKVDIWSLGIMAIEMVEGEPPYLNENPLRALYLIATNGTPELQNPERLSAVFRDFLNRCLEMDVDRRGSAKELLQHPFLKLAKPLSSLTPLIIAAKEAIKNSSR
UniProt Q5S007: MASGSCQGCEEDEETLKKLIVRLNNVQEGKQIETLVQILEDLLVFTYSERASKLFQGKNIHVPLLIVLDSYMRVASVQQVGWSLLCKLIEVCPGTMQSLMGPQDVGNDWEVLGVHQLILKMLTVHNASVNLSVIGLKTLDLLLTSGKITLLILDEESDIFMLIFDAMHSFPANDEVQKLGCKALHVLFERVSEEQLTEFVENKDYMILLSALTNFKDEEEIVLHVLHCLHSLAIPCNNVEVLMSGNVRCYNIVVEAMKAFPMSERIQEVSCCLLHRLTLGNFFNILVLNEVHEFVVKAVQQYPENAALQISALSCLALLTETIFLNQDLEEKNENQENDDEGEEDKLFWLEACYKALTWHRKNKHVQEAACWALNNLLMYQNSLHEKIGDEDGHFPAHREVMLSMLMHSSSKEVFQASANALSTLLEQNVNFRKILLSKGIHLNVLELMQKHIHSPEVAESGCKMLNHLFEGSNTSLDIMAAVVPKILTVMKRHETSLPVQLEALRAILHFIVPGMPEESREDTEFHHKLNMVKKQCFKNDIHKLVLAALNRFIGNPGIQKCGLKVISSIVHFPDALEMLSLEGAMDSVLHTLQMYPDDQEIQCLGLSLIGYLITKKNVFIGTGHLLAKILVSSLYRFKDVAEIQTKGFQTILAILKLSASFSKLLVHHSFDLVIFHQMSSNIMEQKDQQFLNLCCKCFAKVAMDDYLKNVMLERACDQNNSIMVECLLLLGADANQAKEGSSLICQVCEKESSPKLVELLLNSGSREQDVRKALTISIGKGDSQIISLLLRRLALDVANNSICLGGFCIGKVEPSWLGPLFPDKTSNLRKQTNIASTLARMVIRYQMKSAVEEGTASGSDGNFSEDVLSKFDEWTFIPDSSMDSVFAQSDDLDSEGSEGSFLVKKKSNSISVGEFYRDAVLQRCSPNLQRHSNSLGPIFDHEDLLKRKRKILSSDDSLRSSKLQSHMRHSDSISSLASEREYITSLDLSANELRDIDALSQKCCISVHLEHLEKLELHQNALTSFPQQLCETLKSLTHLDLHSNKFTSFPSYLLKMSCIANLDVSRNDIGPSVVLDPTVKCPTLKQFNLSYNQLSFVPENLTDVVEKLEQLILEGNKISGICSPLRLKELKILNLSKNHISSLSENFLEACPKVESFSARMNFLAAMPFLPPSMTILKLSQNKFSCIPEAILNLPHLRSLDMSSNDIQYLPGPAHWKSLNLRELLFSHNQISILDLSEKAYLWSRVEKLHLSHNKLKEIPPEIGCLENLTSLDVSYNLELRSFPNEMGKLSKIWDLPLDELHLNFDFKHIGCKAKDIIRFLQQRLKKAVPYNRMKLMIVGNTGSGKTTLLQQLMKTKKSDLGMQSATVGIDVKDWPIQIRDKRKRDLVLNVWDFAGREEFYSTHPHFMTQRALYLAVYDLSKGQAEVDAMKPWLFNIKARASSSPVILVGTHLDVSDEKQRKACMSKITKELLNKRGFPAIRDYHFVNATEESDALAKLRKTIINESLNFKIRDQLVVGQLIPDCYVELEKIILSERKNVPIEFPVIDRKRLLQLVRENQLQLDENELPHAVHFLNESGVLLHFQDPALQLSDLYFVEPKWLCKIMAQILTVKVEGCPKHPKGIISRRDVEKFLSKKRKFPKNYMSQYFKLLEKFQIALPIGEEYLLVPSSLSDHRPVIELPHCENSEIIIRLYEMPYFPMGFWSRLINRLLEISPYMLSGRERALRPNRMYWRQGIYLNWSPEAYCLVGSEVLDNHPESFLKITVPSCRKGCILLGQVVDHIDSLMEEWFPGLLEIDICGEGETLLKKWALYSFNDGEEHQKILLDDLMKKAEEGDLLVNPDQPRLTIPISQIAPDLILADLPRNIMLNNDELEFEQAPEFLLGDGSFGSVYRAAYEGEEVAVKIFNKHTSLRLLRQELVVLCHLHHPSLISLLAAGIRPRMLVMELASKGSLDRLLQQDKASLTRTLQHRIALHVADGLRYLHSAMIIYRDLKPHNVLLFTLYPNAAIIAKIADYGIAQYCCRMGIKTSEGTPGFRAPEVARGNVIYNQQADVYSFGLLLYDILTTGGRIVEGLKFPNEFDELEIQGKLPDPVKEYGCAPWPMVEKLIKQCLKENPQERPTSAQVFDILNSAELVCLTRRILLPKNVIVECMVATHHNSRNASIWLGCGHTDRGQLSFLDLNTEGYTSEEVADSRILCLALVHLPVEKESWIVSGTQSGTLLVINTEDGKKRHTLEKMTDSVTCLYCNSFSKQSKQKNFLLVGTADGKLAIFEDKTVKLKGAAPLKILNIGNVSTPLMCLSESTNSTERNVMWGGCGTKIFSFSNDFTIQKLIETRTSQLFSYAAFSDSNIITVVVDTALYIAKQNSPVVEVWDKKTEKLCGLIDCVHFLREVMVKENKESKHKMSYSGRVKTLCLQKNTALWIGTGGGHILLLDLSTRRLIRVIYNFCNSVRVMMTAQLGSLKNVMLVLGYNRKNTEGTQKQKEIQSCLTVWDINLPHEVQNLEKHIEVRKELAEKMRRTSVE
Flag‐tagged ROC domain of LRRK2: residues 1328-1511 of Q5S007
Flag‐tagged COR domain of LRRK2: residues 1546-1740 of Q5S007
UniProt Q5S006: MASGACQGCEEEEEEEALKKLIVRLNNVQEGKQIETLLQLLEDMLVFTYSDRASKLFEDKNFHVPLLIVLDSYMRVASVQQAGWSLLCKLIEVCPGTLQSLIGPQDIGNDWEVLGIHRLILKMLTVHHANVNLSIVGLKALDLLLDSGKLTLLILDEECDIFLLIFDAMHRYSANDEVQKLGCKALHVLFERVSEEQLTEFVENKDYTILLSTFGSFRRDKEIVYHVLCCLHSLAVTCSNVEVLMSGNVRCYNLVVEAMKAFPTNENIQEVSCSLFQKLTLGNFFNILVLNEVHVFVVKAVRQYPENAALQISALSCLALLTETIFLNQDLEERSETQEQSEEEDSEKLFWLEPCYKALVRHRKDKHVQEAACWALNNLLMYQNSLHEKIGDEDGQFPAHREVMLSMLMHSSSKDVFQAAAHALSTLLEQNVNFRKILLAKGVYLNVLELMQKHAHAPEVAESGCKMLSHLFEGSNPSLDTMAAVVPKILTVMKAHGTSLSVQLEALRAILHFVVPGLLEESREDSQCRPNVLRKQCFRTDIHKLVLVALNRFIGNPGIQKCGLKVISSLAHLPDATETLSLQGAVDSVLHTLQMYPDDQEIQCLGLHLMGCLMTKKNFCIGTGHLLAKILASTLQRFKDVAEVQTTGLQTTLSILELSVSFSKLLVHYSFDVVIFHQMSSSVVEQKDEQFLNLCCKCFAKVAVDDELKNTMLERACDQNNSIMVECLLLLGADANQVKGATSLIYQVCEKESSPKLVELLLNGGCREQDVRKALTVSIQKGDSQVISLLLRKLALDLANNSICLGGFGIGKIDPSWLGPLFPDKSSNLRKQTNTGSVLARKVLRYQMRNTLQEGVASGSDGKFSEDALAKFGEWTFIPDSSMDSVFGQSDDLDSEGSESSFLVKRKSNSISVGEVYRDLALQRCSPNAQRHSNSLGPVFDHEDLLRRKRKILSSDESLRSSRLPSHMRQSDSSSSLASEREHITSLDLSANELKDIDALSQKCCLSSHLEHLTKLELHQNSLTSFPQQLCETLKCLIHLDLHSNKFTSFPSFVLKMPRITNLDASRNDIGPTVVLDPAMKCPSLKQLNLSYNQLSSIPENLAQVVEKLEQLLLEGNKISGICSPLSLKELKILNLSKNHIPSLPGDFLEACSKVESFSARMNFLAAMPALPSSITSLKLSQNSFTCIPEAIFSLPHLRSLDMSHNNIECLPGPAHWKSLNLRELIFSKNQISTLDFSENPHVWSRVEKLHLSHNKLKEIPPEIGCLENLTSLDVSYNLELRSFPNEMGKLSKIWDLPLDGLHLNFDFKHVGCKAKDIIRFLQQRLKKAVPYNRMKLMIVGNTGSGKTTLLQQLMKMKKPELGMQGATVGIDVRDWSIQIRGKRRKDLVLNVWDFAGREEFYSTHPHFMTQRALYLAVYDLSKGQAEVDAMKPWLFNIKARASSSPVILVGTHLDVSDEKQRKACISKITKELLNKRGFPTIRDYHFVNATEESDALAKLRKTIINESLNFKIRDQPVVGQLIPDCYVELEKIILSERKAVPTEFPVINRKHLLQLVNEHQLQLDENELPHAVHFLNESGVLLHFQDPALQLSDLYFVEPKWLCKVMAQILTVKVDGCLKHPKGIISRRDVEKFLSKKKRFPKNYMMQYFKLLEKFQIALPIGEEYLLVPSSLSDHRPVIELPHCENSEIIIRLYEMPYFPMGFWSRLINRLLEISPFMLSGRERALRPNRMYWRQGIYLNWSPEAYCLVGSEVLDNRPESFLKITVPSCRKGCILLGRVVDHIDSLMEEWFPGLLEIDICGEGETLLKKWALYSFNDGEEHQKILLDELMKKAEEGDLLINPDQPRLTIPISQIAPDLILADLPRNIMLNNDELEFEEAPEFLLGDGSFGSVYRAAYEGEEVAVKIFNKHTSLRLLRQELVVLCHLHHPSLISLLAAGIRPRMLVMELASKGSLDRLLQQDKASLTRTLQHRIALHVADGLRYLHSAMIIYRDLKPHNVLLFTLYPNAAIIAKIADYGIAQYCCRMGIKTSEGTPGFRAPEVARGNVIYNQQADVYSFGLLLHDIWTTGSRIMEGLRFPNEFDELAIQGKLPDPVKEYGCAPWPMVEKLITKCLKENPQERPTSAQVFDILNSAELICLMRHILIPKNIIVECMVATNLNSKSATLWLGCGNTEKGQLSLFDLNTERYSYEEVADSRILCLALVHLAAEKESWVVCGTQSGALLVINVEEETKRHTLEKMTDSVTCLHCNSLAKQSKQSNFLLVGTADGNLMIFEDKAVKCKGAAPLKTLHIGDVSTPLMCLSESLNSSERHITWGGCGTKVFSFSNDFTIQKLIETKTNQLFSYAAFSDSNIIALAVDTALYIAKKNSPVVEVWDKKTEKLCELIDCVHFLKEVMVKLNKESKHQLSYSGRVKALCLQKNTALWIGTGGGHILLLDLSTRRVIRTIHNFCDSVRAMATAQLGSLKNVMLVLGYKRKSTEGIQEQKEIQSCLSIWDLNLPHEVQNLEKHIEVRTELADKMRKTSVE

[3] = target: PAK3 spotted on the protoarray (UniProt O75914); assay: as above
[4] = target: full‐length PAK6 spotted on the protoarray (UniProt Q9NQU5); assay: as above
[5] = target: T2, PAK6 kinase domain alone, spotted on the protoarray (UniProt Q9NQU5); assay: as above
T2 sequence: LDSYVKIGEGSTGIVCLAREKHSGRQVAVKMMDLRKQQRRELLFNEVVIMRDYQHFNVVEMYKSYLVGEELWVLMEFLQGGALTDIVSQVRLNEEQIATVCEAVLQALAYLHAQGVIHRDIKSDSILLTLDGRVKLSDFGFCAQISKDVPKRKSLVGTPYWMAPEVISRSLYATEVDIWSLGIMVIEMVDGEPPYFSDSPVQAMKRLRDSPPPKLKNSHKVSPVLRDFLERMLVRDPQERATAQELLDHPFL

3xFlag‐LRRK2 wild type = 3xFlag‐LRRK2 wild type (UniProt Q5S007); assay: co-IP; lysates of HEK293T cells co-transfected with Flag-LRRK2 and Myc-PAK6 or Myc-14-3-3; immunoprecipitation with anti-Flag or with anti-Myc; washes in lysis buffer (50 mM Tris pH 7.5, 1% Triton X-100) with 0.25 M NaCl; immunoblot
[6] = target: Flag‐tagged ROC domain of LRRK2 (UniProt Q5S007); assay: co-IP; lysates of stable HEK293T cells over-expressing PAK6 and transfected with Flag-tagged full-length LRRK2 or LRRK2 fragments; immunoprecipitation with anti-Flag; immunoblot with anti-PAK6 and anti-Flag
[7] = target: Flag‐tagged COR domain of LRRK2 (UniProt Q5S007); assay: as above
[8] = target: human 3xFlag‐PAK6 wild type, expressed in mouse striatum from rAAV2/7 (human) (UniProt Q9NQU5); assay: co-IP; lysates of mouse striatum injected with rAAVs encoding 3xFlag-PAK6 or 3xFlag-GFP; immunoprecipitation with anti-Flag; immunoblot with anti-Flag and anti-LRRK2 (MJFF2)
[9] = target: 2xMyc‐PAK6 (p21‐activated kinase 6) (human) (UniProt Q9NQU5); assay: co-IP; lysates of HEK293T cells co-transfected with Flag-LRRK2 and Myc-PAK6 or Myc-14-3-3; immunoprecipitation with anti-Flag or with anti-Myc; washes in lysis buffer (50 mM Tris pH 7.5, 1% Triton X-100) with 0.25 M NaCl; immunoblot
[10] = target: endogenous LRRK2 of mouse brain (mouse (endogenous in brain)) (UniProt Q5S006); assay: co-IP; endogenous LRRK2 immunoprecipitated with anti-LRRK2 antibody from wild-type mouse brain lysates, LRRK2 knock-out brain lysates as control; immunoblot with anti-PAK6 and anti-LRRK2

binding [2]: binds
binding [4]: binds
binding [5]: no binding
Molecule: purified full‐length LRRK2 (leucine‐rich repeat kinase 2), probe of the protoarrays (from UniProt Q5S007 1-2527)
binding [1]: no binding (tested: Z score below the cutoff of 3)
binding [3]: no binding (tested: Z score below the cutoff of 3)

binding (3xFlag‐LRRK2 wild type): binds
Molecule: 2xMyc‐PAK6 (p21‐activated kinase 6) (from UniProt Q9NQU5 1-681)

binding [6]: binds
binding [7]: no binding
Molecule: PAK6 wild type, over‐expressed in stable HEK293T cells (from UniProt Q9NQU5 1-681)

binding [8]: binds
Molecule: endogenous LRRK2 of mouse brain (from UniProt Q5S006 1-2527)

binding [9]: binds
Molecule: 3xFlag‐LRRK2 wild type (from UniProt Q5S007 1-2527)

binding [10]: binds
Molecule: endogenous PAK6 of mouse brain (from UniProt Q3ULB5 1-682)

binding [10]: no binding
B1: Rab3A (protein, UniProt P63011 1-220)
chain: MASATDSRYGQKESSDQNFDYMFKILIIGNSSVGKTSFLFRYADDSFTPAFVSTVGIDFKVKTIYRNDKRIKLQIWDTAGQERYRTITTAYYRGAMGFILMYDITNEESFNAVQDWSTQIKTYSWDNAQVLLVGNKCDMEDERVVSSERGRQLADHLGFEFFEASAKDNINVKQTFERLVDVICEKMSESLDTADPAVTGAKQGPQLTDQQAPPHQDCAC

— paper PMC4715492
